Data as given in PMC10798966.

Amino acid sequences for entries named in this document (tags omitted). A change or cut given only in a name is not applied to a line headed by its entry.
UniProt P24161: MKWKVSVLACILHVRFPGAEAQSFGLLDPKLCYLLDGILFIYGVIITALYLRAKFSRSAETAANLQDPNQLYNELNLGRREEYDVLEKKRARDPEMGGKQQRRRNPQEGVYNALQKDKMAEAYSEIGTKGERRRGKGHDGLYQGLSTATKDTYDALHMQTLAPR
UniProt P16297: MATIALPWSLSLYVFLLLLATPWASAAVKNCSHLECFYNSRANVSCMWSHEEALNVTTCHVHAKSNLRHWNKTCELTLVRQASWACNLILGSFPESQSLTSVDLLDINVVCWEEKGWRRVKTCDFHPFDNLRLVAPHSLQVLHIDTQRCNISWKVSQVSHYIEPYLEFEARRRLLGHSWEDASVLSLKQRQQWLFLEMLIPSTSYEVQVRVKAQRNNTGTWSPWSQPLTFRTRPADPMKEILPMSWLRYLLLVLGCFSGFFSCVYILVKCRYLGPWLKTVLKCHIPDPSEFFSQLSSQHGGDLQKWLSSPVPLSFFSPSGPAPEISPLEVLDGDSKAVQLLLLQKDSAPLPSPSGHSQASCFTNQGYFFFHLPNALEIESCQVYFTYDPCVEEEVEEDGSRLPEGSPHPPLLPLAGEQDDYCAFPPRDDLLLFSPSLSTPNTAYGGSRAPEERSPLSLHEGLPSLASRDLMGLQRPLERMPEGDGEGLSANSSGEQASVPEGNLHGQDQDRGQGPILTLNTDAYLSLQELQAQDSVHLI
UniProt Q8BHD8: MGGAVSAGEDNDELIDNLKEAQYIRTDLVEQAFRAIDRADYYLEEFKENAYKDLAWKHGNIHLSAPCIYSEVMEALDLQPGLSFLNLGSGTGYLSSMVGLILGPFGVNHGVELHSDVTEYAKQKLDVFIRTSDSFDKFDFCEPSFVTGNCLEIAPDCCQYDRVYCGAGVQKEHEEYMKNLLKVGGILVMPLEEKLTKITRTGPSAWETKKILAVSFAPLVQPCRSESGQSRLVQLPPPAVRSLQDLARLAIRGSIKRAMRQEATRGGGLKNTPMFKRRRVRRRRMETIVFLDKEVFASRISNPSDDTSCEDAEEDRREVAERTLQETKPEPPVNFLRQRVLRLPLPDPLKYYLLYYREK

Key:
[1] = target: GFP-CD247 (intracellular domain of CD247) (UniProt P24161); assay: co-IP; HEK293T cells transfected with the indicated constructs for 24 h, MG132 (20 µM) 4 h before collection; lysis in 50 mM HEPES, 150 mM NaCl, 1% Triton X-100, 0.5% NP40; IP with anti-HA, anti-Myc or anti-GFP, western blotting
[2] = target: GFP-IL2RB (intracellular domain of IL2RB) (UniProt P16297); assay: as above

binding [1]: binds
binding [2]: binds
Substance: HA-PCMTD2 (from UniProt Q8BHD8 1-359)

No constants are given. Whether binding was seen depends on the method and setting. Binding seen in cells or lysates may run through a third protein. Binding can be weak; no strength is given.
